# Data as given in PubChem BioAssay AID504764 (Drosophila RNAi Screening Center, 2011).
# Test: 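Genome-wide screen for regulators of Notch-driven gene expression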 (primary screen)
# System: Drosophila Kc167 cells
# Reagents: long dsRNA against Drosophila genes
# Duration: about 5 days (4 days dsRNA, then 24 h after transfection)
# Conditions: transfection of constitutively active membrane-tethered Notch lacking the extracellular domain, read 24 h later
# Read-out: 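Firefly luciferase from an E(spl)m3 reporter with active Notch, plus control-promoter and uninduced reporter wells for normalisation; unnormalised counts, duplicate wells a and b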
# Scale: induced reporter light, run 1, well a and induced reporter light, run 1, well b: higher = more light from the Notch target reporter with active Notch; control promoter light, run 1, well a and control promoter light, run 1, well b: higher = more light from the viral control promoter (cell number, transfection, viability); uninduced reporter light, run 1, well a: higher = more light from the Notch target reporter without active Notch
# Hit rule: 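Wells with low control signal or poorly matching duplicates excluded; duplicates averaged; per source plate, z beyond ±2 for induced/control log2 ratio or beyond ±1.8 for induced/uninduced marks a hit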
# Meaning of the calls: active = modifier hit (raised or lowered Notch signal); inactive = not a hit
# The deposit covers about 22,000 reagents; this is a random part of those with a known target gene and a result. Over the whole deposit, 403 (1.9%) were called active. 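Unnormalised raw counts per well; ratio z-scores behind the hit calls and whether each hit raises or lowers signal are not deposited.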 A plus sign joins genes that one reagent is predicted to hit. The record does not give: the amount of reagent.
gene,dsRNA,"induced reporter light, run 1, well a","induced reporter light, run 1, well b","control promoter light, run 1, well a","control promoter light, run 1, well b","uninduced reporter light, run 1, well a",call
CG8620,DRSC11020,1.66e5,1.34e5,1.69e5,1.20e5,7282,inactive
Nepl21,DRSC14133,1.66e5,1.91e5,3.05e5,2.54e5,13855,inactive
CG17325 + CG42305,DRSC02602,43030,33805,41710,34090,3375,inactive
CG3726,DRSC18320,2.08e5,1.80e5,1.75e5,1.70e5,13205,inactive
Mitf,DRSC17212,72530,75145,96440,1.09e5,5535,inactive
Mitf,DRSC21056,65340,58450,80980,88590,6805,inactive
CG14673 (retired record),DRSC12259,84365,76935,68785,64865,4080,inactive
Cks85A,DRSC16562,90155,65630,1.15e5,85865,7540,inactive
CG11841,DRSC14399,2.22e5,2.26e5,3.43e5,3.16e5,15305,inactive
alpha-Catr,DRSC04669,1.97e5,1.86e5,1.77e5,1.52e5,13380,inactive
CG10459,DRSC05991,1.58e5,1.52e5,2.03e5,1.99e5,12930,inactive
Cht8,DRSC04546,54345,50545,51850,64405,2830,inactive
Ccdc39,DRSC12286,1.51e5,1.20e5,1.09e5,1.14e5,10788,inactive
Vha26,DRSC12371,82290,83820,64830,72560,5580,inactive
Atpalpha,DRSC14119,1.48e5,1.60e5,2.21e5,2.22e5,14500,inactive
CG11300,DRSC04104,1.37e5,1.34e5,1.40e5,1.28e5,7785,inactive

Next part; the last 6 above are carried over.
gene,dsRNA,"induced reporter light, run 1, well a","induced reporter light, run 1, well b","control promoter light, run 1, well a","control promoter light, run 1, well b","uninduced reporter light, run 1, well a",call
CG10459,DRSC05991,1.58e5,1.52e5,2.03e5,1.99e5,12930,inactive
Cht8,DRSC04546,54345,50545,51850,64405,2830,inactive
Ccdc39,DRSC12286,1.51e5,1.20e5,1.09e5,1.14e5,10788,inactive
Vha26,DRSC12371,82290,83820,64830,72560,5580,inactive
Atpalpha,DRSC14119,1.48e5,1.60e5,2.21e5,2.22e5,14500,inactive
CG11300,DRSC04104,1.37e5,1.34e5,1.40e5,1.28e5,7785,inactive
CG13300,DRSC09974,53325,38045,21870,20445,4810,inactive
CG18764,DRSC15391,82545,98920,68820,54755,5205,inactive
Mob3,DRSC02791,1.05e5,1.45e5,81995,97830,16470,inactive
CG42326,DRSC06483,2.08e5,1.71e5,2.05e5,2.07e5,15440,inactive
CG42326,DRSC06484,1.55e5,1.50e5,2.06e5,2.00e5,13085,inactive
ng2,DRSC18803,97770,1.13e5,1.76e5,1.77e5,7850,inactive
inaE,DRSC19376,1.16e5,1.16e5,1.27e5,1.22e5,16965,inactive
inaE,DRSC19377,1.85e5,1.98e5,2.35e5,3.03e5,13420,inactive
inaE,DRSC19379,88985,82445,81300,82975,10655,inactive
inaE,DRSC19726,88575,95760,1.16e5,1.05e5,9140,inactive
CG15894,DRSC18098,1.37e5,1.30e5,2.37e5,2.64e5,10870,inactive
CG15894,DRSC18099,15550,19035,24678,29050,4090,inactive
CG6414,DRSC18401,1.36e5,1.53e5,3.23e5,2.57e5,11125,inactive
CG7634,DRSC11843,1.00e5,1.08e5,98320,73125,5920,inactive
aay,DRSC11320,1.21e5,99565,54635,25285,7405,inactive
park + Targ3,DRSC11617,1.07e5,1.02e5,71725,85770,8035,inactive
Cyp6a18,DRSC16632,1.16e5,1.40e5,1.96e5,1.77e5,11635,inactive
CG13204,DRSC06328,1.12e5,1.09e5,1.51e5,1.45e5,10300,inactive
nab,DRSC08455,2.09e5,1.45e5,3.30e5,2.31e5,11875,inactive
nab,DRSC08456,97790,1.09e5,1.42e5,2.18e5,10100,inactive
Nup153,DRSC19904,64745,69585,56635,41710,6710,inactive
l(2)efl,DRSC04698,1.43e5,1.66e5,1.44e5,1.46e5,12160,inactive
abs,DRSC12372,1.23e5,1.08e5,74405,89555,9375,inactive
jigr1,DRSC13724,1.98e5,1.82e5,1.51e5,1.38e5,13885,inactive
jigr1,DRSC15233,2.32e5,1.90e5,2.42e5,1.96e5,15105,inactive
CG16710,DRSC15136,2.11e5,1.56e5,1.82e5,2.01e5,13250,inactive
Usp10,DRSC08282,1.01e5,94485,1.64e5,1.73e5,7810,inactive
Usp10,DRSC08373,80610,97155,2.96e5,2.36e5,8385,active
Upf1,DRSC19667,1.59e5,1.88e5,3.63e5,3.54e5,15600,active
eIF3g1,DRSC18427,8462,9540,10380,13130,650,inactive
CG13427,DRSC06389,87555,70665,1.16e5,1.15e5,8225,inactive
senju,DRSC02366,2.04e5,1.62e5,1.93e5,1.80e5,12105,inactive
RabX6,DRSC08223,2.65e5,2.30e5,2.72e5,2.37e5,16695,inactive
Obp83g,DRSC12269,1.07e5,82285,77230,53085,6460,inactive
